# Measurements: the supplement of paper PMC3334620
# Whole data set: some 33,000 sequences, median “E-score (-0.5 to 0.5)” near -0.015, cut for the highest 2% near 0.3. Some of the results follow.
# Molecular target: T1, Abf1 (UniProt P14164)
# T1 sequence: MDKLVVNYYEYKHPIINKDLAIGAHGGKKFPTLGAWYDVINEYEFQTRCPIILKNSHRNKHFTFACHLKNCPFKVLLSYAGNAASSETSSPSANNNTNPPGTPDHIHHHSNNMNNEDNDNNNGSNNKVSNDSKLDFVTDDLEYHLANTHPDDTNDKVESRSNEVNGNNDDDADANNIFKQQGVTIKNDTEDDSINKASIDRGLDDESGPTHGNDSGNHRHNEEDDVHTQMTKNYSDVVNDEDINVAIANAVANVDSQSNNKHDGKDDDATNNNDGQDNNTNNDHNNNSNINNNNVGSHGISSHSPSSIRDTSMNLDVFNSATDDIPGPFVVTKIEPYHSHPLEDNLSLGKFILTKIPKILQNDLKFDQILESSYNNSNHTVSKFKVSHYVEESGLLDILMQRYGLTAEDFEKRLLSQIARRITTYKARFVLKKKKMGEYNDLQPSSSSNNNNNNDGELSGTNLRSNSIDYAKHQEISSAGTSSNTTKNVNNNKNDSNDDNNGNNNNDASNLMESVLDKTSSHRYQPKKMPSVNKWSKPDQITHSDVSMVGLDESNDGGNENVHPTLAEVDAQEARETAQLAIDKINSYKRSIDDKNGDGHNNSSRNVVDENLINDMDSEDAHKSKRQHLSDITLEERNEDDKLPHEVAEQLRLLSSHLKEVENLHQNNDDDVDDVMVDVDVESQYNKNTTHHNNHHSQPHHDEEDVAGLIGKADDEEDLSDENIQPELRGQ
# Test: PBM E-score (8-mer binding enrichment) (E-score (-0.5 to 0.5)); higher = stronger / more preferred TF binding
# Conditions: protein concentration: 200 nM; construct: GST-full length
# How it was run: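 Full-length yeast transcription factors or their DNA-binding domains, GST-tagged and expressed with PURExpress, were applied at about 100-200 nM to universal all-10-mer Agilent arrays. These arrays had been made double-stranded by primer extension on fresh or once-stripped slides. Detection used fluorescent anti-GST, normalisation used masliner, and E-scores for ungapped eight-base words pooled with reverse complements came from the Universal PBM Analysis Suite.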
row,Sequence,PBM E-score
1,AGCATTAT,0.18
2,CATAGAGG,-0.0381
3,CGTACCGA,0.232
4,CCTTTCTC,-0.154
5,CAGTCATC,-0.136
6,CCACCTGC,-0.19
7,ATATATTC,0.179
8,CTGCATCC,-0.0692
9,ACAAACAA,0.0373
10,AATCCGGC,-0.21
11,GTCCTTAA,0.163
12,CCTAATTA,-0.166
13,CCCCCATC,-0.367
14,TCCGTCCA,-0.0678
15,ATAGTCTA,-0.138
16,TAGGTCAA,0.0576
17,CGTAATAG,0.112
18,AGTCGTGC,0.0998
19,AGGTCCCC,-0.261
20,CAGGTGCG,0.0401
21,ACTCAATC,0.0592
22,TAGTTAGA,0.0462

row,Sequence,PBM E-score
1,ATGTTAGC,0.0355
2,AGTTGCAC,0.0117
3,ACGTTCGC,-0.118
4,CCATGAAC,0.0596
5,AGAACGGC,0.178
6,TATGGACA,0.0549
7,AATCAACG,0.0811
8,ACTGGCTC,-0.0908
9,GTCGAAAC,-0.0844
10,ATGAACGC,-0.0808
11,CAAAAATA,0.153
12,GGTTGTAC,-0.019
13,CTACAGGC,-0.279
14,CACTTCGA,0.223
15,GCCACGCC,-0.12
16,ATAGCGTC,-0.062
17,GATTCAGC,-0.147
18,ACATGTTG,0.0956
19,CCAAATCC,-0.212
20,ACATTTCC,0.211
21,GCGAGGGA,-0.134
22,CTATCCGA,-0.0191

# Taken from above:
# AATCCGGC – PBM E-score: -0.21
# AGCATTAT – PBM E-score: 0.18
# ACATTTCC – PBM E-score: 0.211

# Further results:

row,Sequence,PBM E-score
1,CAGACTGG,-0.159
2,CCACATCC,-0.0571
3,TCCTATAA,0.0562
4,TGAAGAAA,-0.0394
5,GAAGACAA,0.137
6,CAATAATG,-0.0471
7,GCCTAGAA,-0.0468
8,TGTTCCAA,-0.0305
9,CAAAGGTA,0.105
10,GGCACAAC,-0.105
11,GTTCCTAA,-0.0556
12,ACATTGAC,0.0983
13,CCAACTCA,-0.154
14,GCATGAGA,0.0456
15,CGAGCTCC,0.0327
16,CCTCACAC,-0.123
17,ACTACTGC,-0.0574
18,CAAACGGG,-0.0186
19,AGGGGTGA,0.0129
20,ACTATCGA,0.0926
21,ACTTTGGC,-0.142
22,ATAAAACG,0.284

row,Sequence,PBM E-score
1,CTCGCTGA,-0.0237
2,CCGCAGCG,-0.267
3,GAACCGTA,0.168
4,GCGTAAAC,-0.0699
5,CAGGGAAA,-0.16
6,AAGCTGGC,-0.0327
7,AGGTTCGG,-0.15
8,GATATGGA,0.235
9,AGGCGACA,-0.157
10,ATACATTA,0.208
11,ATCCGTGG,-0.0109
12,AATCCGAA,-0.214
13,GCATTTCA,-0.037
14,AGACCGGC,-0.168
15,AATGTCCC,0.0778
16,CAGAACCC,-0.131
17,CTGCCCTC,-0.279
18,GACTAGTC,-0.214
19,AGTATACC,-0.00776
20,GTACCCAA,0.0903
